Source: PubChem BioAssay AID1159584 (Peter MacCallum Cancer Centre, 2016)
Screen: 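Knock-downs that harm CDH1-null cells more than parental MCF10A cells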 (primary screen). Cell system: human MCF10A breast epithelial cells, parental and CDH1-null. Knock-down reagent: siRNA against human genes. Read-out: 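Cell viability by CellTiter-Glo ATP luminescence, each line scaled to the mean of mock wells across plates, then CDH1-null over parental ratio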. Reading the numbers: CDH1-null / parental viability ratio: higher = CDH1-null cells survive relatively better than parental.
This is an unselected part of about 18,000 reagents. Not all columns of the deposit are shown. No sequences are given here. The record does not give: the amount of reagent, the time to read-out.

ZDHHC6 (zDHHC palmitoyltransferase 6) — CDH1-null / parental viability ratio = 1.42
SPHAR (retired record) — CDH1-null / parental viability ratio = 1.19
CALY (calcyon neuron specific vesicular protein) — CDH1-null / parental viability ratio = 1.14
KRT10-AS1 (KRT10 antisense RNA 1) — CDH1-null / parental viability ratio = 0.99
SHOX2 (SHOX homeobox 2) — CDH1-null / parental viability ratio = 0.65
ZNF436 (zinc finger protein 436) — CDH1-null / parental viability ratio = 1.03
GNG7 (G protein subunit gamma 7) — CDH1-null / parental viability ratio = 0.97
EXOC2 (exocyst complex component 2) — CDH1-null / parental viability ratio = 1.41
NEDD4 (NEDD4 E3 ubiquitin protein ligase) — CDH1-null / parental viability ratio = 1.27
RLN3 (relaxin 3) — CDH1-null / parental viability ratio = 0.79
NME8 (NME/NM23 family member 8) — CDH1-null / parental viability ratio = 1.09
TRIM51 (tripartite motif-containing 51) — CDH1-null / parental viability ratio = 0.96
CCDC92 (coiled-coil domain containing 92) — CDH1-null / parental viability ratio = 0.87
ING4 (inhibitor of growth family member 4) — CDH1-null / parental viability ratio = 0.67
ATAD3B (ATPase family AAA domain containing 3B) — CDH1-null / parental viability ratio = 1.06
WSCD1 (WSC domain sialate O sulfotransferase 1) — CDH1-null / parental viability ratio = 1.06
SDAD1 (SDA1 domain containing 1) — CDH1-null / parental viability ratio = 1.15
PTGER2 (prostaglandin E receptor 2) — CDH1-null / parental viability ratio = 0.69
PPARA (peroxisome proliferator activated receptor alpha) — CDH1-null / parental viability ratio = 0.96
HAGH (hydroxyacylglutathione hydrolase) — CDH1-null / parental viability ratio = 0.82
NMRAL1 (NmrA like redox sensor 1) — CDH1-null / parental viability ratio = 0.86
PUS7L (pseudouridine synthase 7 like) — CDH1-null / parental viability ratio = 1.22
BIN2 (bridging integrator 2) — CDH1-null / parental viability ratio = 1
NUCB1 (nucleobindin 1) — CDH1-null / parental viability ratio = 0.95
RPL11 (ribosomal protein L11) — CDH1-null / parental viability ratio = 1.44
REV1 (REV1 DNA directed polymerase) — CDH1-null / parental viability ratio = 1.05
GADD45GIP1 (GADD45G interacting protein 1) — CDH1-null / parental viability ratio = 1.38
DAP (death associated protein) — CDH1-null / parental viability ratio = 0.74
ZDHHC2 (zDHHC palmitoyltransferase 2) — CDH1-null / parental viability ratio = 1.13
ACOXL (acyl-CoA oxidase like) — CDH1-null / parental viability ratio = 0.76
DPEP3 (dipeptidase 3) — CDH1-null / parental viability ratio = 1
DSCAML1 (DS cell adhesion molecule like 1) — CDH1-null / parental viability ratio = 0.97
ASB8 (ankyrin repeat and SOCS box containing 8) — CDH1-null / parental viability ratio = 1.05
CFAP107 (cilia and flagella associated protein 107) — CDH1-null / parental viability ratio = 0.8
UBE2L3 (ubiquitin conjugating enzyme E2 L3) — CDH1-null / parental viability ratio = 1
AARD (alanine and arginine rich domain containing protein) — CDH1-null / parental viability ratio = 1.05
ZNF229 (zinc finger protein 229) — CDH1-null / parental viability ratio = 1.67
SYT6 (synaptotagmin 6) — CDH1-null / parental viability ratio = 1.09
CDH10 (cadherin 10) — CDH1-null / parental viability ratio = 1.07
GSDMC (gasdermin C) — CDH1-null / parental viability ratio = 1.05
F12 (coagulation factor XII) — CDH1-null / parental viability ratio = 1.12
DDX39A (DExD-box helicase 39A) — CDH1-null / parental viability ratio = 0.89
SORBS2 (sorbin and SH3 domain containing 2) — CDH1-null / parental viability ratio = 0.78
GET3 (guided entry of tail-anchored proteins factor 3, ATPase) — CDH1-null / parental viability ratio = 1.21
KMT2D (lysine methyltransferase 2D) — CDH1-null / parental viability ratio = 1.09

Not a retest: 5 of the entries above.
ATAD3B (ATPase family AAA domain containing 3B) — CDH1-null / parental viability ratio = 1.06
WSCD1 (WSC domain sialate O sulfotransferase 1) — CDH1-null / parental viability ratio = 1.06
SDAD1 (SDA1 domain containing 1) — CDH1-null / parental viability ratio = 1.15
PTGER2 (prostaglandin E receptor 2) — CDH1-null / parental viability ratio = 0.69
PPARA (peroxisome proliferator activated receptor alpha) — CDH1-null / parental viability ratio = 0.96
